Results reported in article PMC11765430.
These are yes or no findings as the source states them, for the method shown. Binding seen in cells or lysates may run through a third protein. Some entries that bind do so weakly or less than the wild type.

Chains of the proteins cited; added tags and fusions are not shown.
UniProt Q12983: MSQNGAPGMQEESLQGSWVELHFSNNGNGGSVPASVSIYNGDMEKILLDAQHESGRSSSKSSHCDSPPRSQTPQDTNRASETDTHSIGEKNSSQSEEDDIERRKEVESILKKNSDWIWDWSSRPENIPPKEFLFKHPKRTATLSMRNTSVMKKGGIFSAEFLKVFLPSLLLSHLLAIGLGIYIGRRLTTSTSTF
UniProt Q14457: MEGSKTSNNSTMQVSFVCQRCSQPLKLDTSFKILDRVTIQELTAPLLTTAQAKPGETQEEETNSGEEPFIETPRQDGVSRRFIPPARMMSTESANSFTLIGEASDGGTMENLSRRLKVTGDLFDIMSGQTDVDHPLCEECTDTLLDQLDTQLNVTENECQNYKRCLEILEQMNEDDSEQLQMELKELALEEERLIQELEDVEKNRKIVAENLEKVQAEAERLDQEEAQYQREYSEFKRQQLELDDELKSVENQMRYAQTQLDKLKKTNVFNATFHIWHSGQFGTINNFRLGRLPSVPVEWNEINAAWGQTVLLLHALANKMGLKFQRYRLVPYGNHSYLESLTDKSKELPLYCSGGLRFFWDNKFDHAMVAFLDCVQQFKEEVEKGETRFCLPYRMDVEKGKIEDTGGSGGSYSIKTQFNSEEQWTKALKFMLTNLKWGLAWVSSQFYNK
UniProt P10415: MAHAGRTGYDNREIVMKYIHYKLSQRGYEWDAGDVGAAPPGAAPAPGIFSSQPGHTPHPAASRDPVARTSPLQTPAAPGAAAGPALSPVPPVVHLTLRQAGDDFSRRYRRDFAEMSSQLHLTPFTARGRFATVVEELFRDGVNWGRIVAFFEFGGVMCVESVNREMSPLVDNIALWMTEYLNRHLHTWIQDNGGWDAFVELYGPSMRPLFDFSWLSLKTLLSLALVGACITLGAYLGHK

Molecular target: BNIP3 (human (endogenous in KGN)) (UniProt Q12983)
Test: co-IP; KGN whole-cell extracts (IP lysis buffer with PMSF) incubated with anti-BNIP3 antibody at 4 °C for 12 h, Protein A/G magnetic beads 1 h at room temperature, immunoblot of the precipitates; cells cultured under hypoxia or normoxia, with or without 15 mM 2-DG, 15 mM oxamate, 3 mM α-CHCA, 15 mM Nala

binding | Substance
binds | Beclin-1 (from UniProt Q14457 1-450)
binds | Bcl-2 (from UniProt P10415 1-239)
